For 19 compounds, survivor count and T/C results are on record in PubChem BioAssay AID192 (DTP/NCI, 2004).

Molecules are shown by their SMILES. The list is a part of this screen's results and no random one: it is rich in T/C values a quarter to a half above the control, in often repeated tests (any T/C) and in doses without a T/C. Further doses and runs are listed elsewhere. T/C gives the treated animals as a percentage of the vehicle group. Some doses have a count of surviving animals in place of a T/C: the source holds a T/C of zero for them, seemingly a mark for toxic or unscored doses. Some survivor counts are full or nearly so, which does not show that the dose was tolerated: survival well below the control is almost never listed, so the zero probably covers shortened survival too. Survivors were counted at the toxicity check, usually on the fifth day, unless a day is given; later deaths do not show. Schedules are NCI's codes, taken here to give the interval after Q, in days (D) or hours (H), and the number of doses after X. Additions like (4×) count equal records among those shown. Some entries were tested several times; their values stand side by side, smallest first. Where survival is the endpoint, the PubChem record calls one and a half times the control and up active, and a quarter to a half above the control has no call in these data; cut-offs in other NCI protocols can differ. Some T/C values carry the count of animals alive at the toxicity check (mostly the fifth day); where none is given, no animal had died by that day.

The subject of this test is BDF1 mice, B16 melanoma ip, median survival T/C. Put plainly: NCI In Vivo Anticancer Drug Screen. Data for tumor model B16 Melanoma (intraperitoneal) in B6D2F1 (BDF1) mice. As to conditions: T/C endpoint: median survival time, higher T/C = longer survival. The protocol:
The antitumor activity of compounds was measured in mice bearing transplantable tumors. Survival or tumor size were measured and the results are expressed as the measurement made in the treated group (T) divided by the measurement made in the vehicle treated control group (C). The tumor model used in this assay is B16 Melanoma (intraperitoneal) in B6D2F1 (BDF1) mice

[1] abbreviates: dose: 100.0 mg/kg/injection, schedule: Q01DX009 (ip), vehicle: Klucel (hydroxypropylcellulose) (HPC).
Where [2] appears, read: dose: 6.25 mg/kg/injection, schedule: Q01DX009 (ip), vehicle: Klucel (hydroxypropylcellulose) (HPC).
Where [3] appears, read: dose: 400.0 mg/kg/injection, schedule: Q01DX009 (ip), vehicle: saline with Tween-80.
Where [4] appears, read: dose: 50.0 mg/kg/injection, schedule: Q01DX009 (ip), vehicle: saline with Tween-80.
[5] abbreviates: dose: 100.0 mg/kg/injection, schedule: Q01DX009 (ip), vehicle: saline with Tween-80.
The mark [6] stands for this setting: dose: 200.0 mg/kg/injection, schedule: Q01DX009 (ip), vehicle: saline with Tween-80.
Where [7] appears, read: dose: 25.0 mg/kg/injection, schedule: Q01DX009 (ip), vehicle: saline.

On to `CCc1ccccc1NC(=O)Nc1ccc(OC)cc1`, for which the survivor count under setting [1] is 10 of 10.
Turning to `CC[CH2][Pb]([CH2]CC)([CH2]CC)[O]C(=O)c1ccccc1`, under setting [2], the survivor count is given as 10 of 10.
For `COc1cc2c(c(OC)c1OC)-c1ccc(OC)c(=O)cc1[C@@H](NC(=O)CF)CC2`, the T/C (dose: 0.18 mg/kg/injection, schedule: Q01DX009 (ip), vehicle: saline with Tween-80) is 134 % of control. Besides, the survivor count runs as follows: (dose: 0.37 mg/kg/injection, schedule: Q01DX009 (ip), vehicle: saline with Tween-80) 7 of 10; (dose: 0.75 mg/kg/injection, schedule: Q01DX009 (ip), vehicle: saline with Tween-80) 0 of 10.
For the compound `Cc1ccc(NC(=O)c2ccccc2Cl)cc1`, under setting [3], the survivor count is 6 of 10.
Turning to `COc1cc(/C=C/c2nc3ccccc3nc2/C=C/c2cc(OC)c(OC)c(OC)c2)cc(OC)c1OC`, the survivor count was 10 of 10 (dose: 25.0 mg/kg/injection, schedule: Q01DX009 (ip), vehicle: saline with Tween-80); 10 of 10 under setting [4]; 10 of 10 under setting [5]; 9 of 10 under setting [6]; 8 of 10 under setting [3].
In the case of `CC[CH2][Sn]([Cl])([Cl])[CH2]CC`, the survivor count reads like this: (dose: 1.0 mg/kg/injection, schedule: Q01DX009 (ip), vehicle: saline with Tween-80) 6 of 6; (dose: 2.0 mg/kg/injection, schedule: Q01DX009 (ip), vehicle: saline with Tween-80) 6 of 6; (dose: 4.0 mg/kg/injection, schedule: Q01DX009 (ip), vehicle: saline with Tween-80) 5 of 6; (dose: 4.0 mg/kg/injection, schedule: Q01DX009 (ip), vehicle: saline) 6 of 10 and 9 of 10; (dose: 8.0 mg/kg/injection, schedule: Q01DX009 (ip), vehicle: saline with Tween-80) 0 of 6.
On to `NC(N)=Nc1ccc(C(=O)Oc2ccc([N+](=O)[O-])cc2CN2CCCCC2)cc1`, for which the survivor count reads like this: (dose: 12.5 mg/kg/injection, schedule: Q01DX009 (ip), vehicle: saline) 0 of 10; under setting [7], 0 of 10.
With `O=C(Nc1cccc(C(F)(F)F)c1)c1ccc(C(=O)Nc2cccc(C(F)(F)F)c2)cc1`, the survivor count under setting [5] is reported as 10 of 10, the survivor count under setting [6] is listed as 9 of 10 and the survivor count under setting [3] is reported as 9 of 10.
Take `CC[C@@]1(O)C[C@H](OC2CC(N(C)C)C(OC3CC(O)C(OC4CC(O)C(O)C(C)O4)C(C)O3)C(C)O2)c2c(cc3c(c2O)C(=O)c2c(O)ccc(O)c2C3=O)[C@H]1C(=O)OC` (stereo partly specified): the T/C (dose: 0.12 mg/kg/injection, schedule: Q01DX009 (ip), vehicle: alcohol) is 149 % of control; the T/C (dose: 0.2 mg/kg/injection, schedule: Q01DX001 (ip), vehicle: saline) was 132 % of control; the T/C (dose: 0.25 mg/kg/injection, schedule: Q01DX009 (ip), vehicle: alcohol) is 142 % of control; the T/C (dose: 0.4 mg/kg/injection, schedule: Q01DX001 (ip), vehicle: saline) is 141 % of control; the T/C (dose: 0.5 mg/kg/injection, schedule: Q01DX009 (ip), vehicle: alcohol) was 137 % of control [9 of 10 alive]; the T/C (dose: 0.5 mg/kg/injection, schedule: Q01DX009 (ip), vehicle: other) was 138 % of control [7 of 10 alive]. Further, the T/C (dose: 1.0 mg/kg/injection, schedule: Q01DX009 (ip), vehicle: other) is 134 % of control [9 of 10 alive]; the T/C (dose: 2.16 mg/kg/injection, schedule: Q01DX001 (ip), vehicle: water) was 127 % of control; the T/C (dose: 3.6 mg/kg/injection, schedule: Q01DX001 (ip), vehicle: water) was 133 % of control; the T/C (dose: 6.0 mg/kg/injection, schedule: Q01DX001 (ip), vehicle: water) was 141 % of control. Further, the survivor count by setting is: (dose: 2.0 mg/kg/injection, schedule: Q01DX009 (ip), vehicle: other) 9 of 10; (dose: 3.2 mg/kg/injection, schedule: Q01DX001 (ip), vehicle: saline) 5 of 10; (dose: 4.0 mg/kg/injection, schedule: Q01DX009 (ip), vehicle: other) 8 of 10; (dose: 8.0 mg/kg/injection, schedule: Q01DX009 (ip), vehicle: other) 2 of 10; (dose: 10.0 mg/kg/injection, schedule: Q01DX001 (ip), vehicle: water) 6 of 8.
For the compound `N#CC1CC=CCC1` (stereo unspecified), the survivor count (dose: 100.0 mg/kg/injection, schedule: Q04DX003 (ip), vehicle: saline with Tween-80) was 7 of 10; the survivor count (dose: 200.0 mg/kg/injection, schedule: Q04DX003 (ip), vehicle: saline with Tween-80) is listed as 0 of 10; the survivor count (dose: 400.0 mg/kg/injection, schedule: Q04DX003 (ip), vehicle: saline with Tween-80) is recorded as 0 of 10.
In the case of `CCCCCCCCCCCCCCCC(=O)N(CCC#N)CCCCCCCCCN(CCC#N)C(=O)CCCCCCCCCCCCCCC`, where the note is “dose: 50.0 mg/kg/injection, schedule: Q04DX003 (ip), vehicle: Klucel (hydroxypropylcellulose) (HPC)”, the survivor count is 10 of 10.
Consider `Cc1cc2[nH]c(=O)[nH]c2cc1C`, for which the survivor count under setting [6] is given as 10 of 10.
For `CCCCNC(C)(C)C(SSSC(c1cccs1)C(C)(C)NCCCC)c1cccs1` (stereo unspecified), the survivor count runs as follows: under setting [4], 10 of 10; under setting [5], 10 of 10; under setting [6], 10 of 10.
For the compound `CC(C)c1ccc(C(c2c(O)c3ccccc3oc2=O)c2c(O)c3ccccc3oc2=O)cc1`, the survivor count under setting [1] is reported as 10 of 10; the survivor count (dose: 200.0 mg/kg/injection, schedule: Q01DX009 (ip), vehicle: Klucel (hydroxypropylcellulose) (HPC)) was 10 of 10; the survivor count (dose: 400.0 mg/kg/injection, schedule: Q01DX009 (ip), vehicle: Klucel (hydroxypropylcellulose) (HPC)) is 8 of 10.
As to `C[N+](C)(C)CCOc1ccc(Cl)cc1`, the survivor count is 3 of 10 (dose: 200.0 mg/kg/injection, schedule: Q04DX003 (ip), vehicle: Klucel (hydroxypropylcellulose) (HPC)) and 0 of 10 (dose: 400.0 mg/kg/injection, schedule: Q04DX003 (ip), vehicle: Klucel (hydroxypropylcellulose) (HPC)).
`O=NN(CCCl)C(=O)NCCO`: the T/C (dose: 1.56 mg/kg/injection, schedule: Q01DX009 (ip), vehicle: water) is 129 % of control; the T/C (dose: 6.25 mg/kg/injection, schedule: Q01DX009 (ip), vehicle: water, evaluated on day 45) was 127 % of control; the T/C (dose: 6.25 mg/kg/injection, schedule: Q01DX009 (ip), vehicle: water, evaluated on day 60) is 147 % of control. For the same compound, the survivor count is 10 of 10 (dose: 3.13 mg/kg/injection, schedule: Q01DX009 (ip), vehicle: water); 10 of 10 (2×) (dose: 12.5 mg/kg/injection, schedule: Q01DX009 (ip), vehicle: water); 10 of 10 (2×) (dose: 25.0 mg/kg/injection, schedule: Q01DX009 (ip), vehicle: water); 8 of 10 and 10 of 10 (dose: 50.0 mg/kg/injection, schedule: Q01DX009 (ip), vehicle: water).
Consider `COC(=O)[C@H]1[C@H]2C[C@@H]3c4[nH]c5cc(OC)ccc5c4CCN3C[C@H]2C[C@@H](OC(=O)c2cccc(N(C)C)c2)[C@@H]1OC`, for which the survivor count reads like this: (dose: 0.39 mg/kg/injection, schedule: Q01DX009 (ip), vehicle: Klucel (hydroxypropylcellulose) (HPC)) 10 of 10; (dose: 3.12 mg/kg/injection, schedule: Q01DX009 (ip), vehicle: Klucel (hydroxypropylcellulose) (HPC)) 9 of 10; under setting [2], 9 of 10 and 10 of 10.
Consider `COc1cccc(C(=O)c2ccncc2C)c1OC`, for which the survivor count (dose: 200.0 mg/kg/injection, schedule: Q01DX009 (ip), vehicle: water) is listed as 9 of 10.
For the compound `C[n+]1c2cc(N)ccc2cc2ccc(N)cc21`, the survivor count under setting [7] was 0 of 10.
